Hit rate of the full screen: of about 360,000 compounds, about 10,000 (2.8%) were called active. Inconclusive means that the source gave no clear call. Such entries were picked first, then a sample of the others. Calls follow the shape of the dose curve; as a rule, active = well fitted inhibition curve with a large enough effect; inconclusive = small, poorly fitted or top-dose-only effect; inactive = flat fitted curve, though single readings scatter. Potencies beside an inconclusive call are fits to weak or partial responses and may not hold up.
Each compound was assayed against Serine/threonine-protein kinase PLK1 (Homo sapiens) (UniProt P53350) (assay: qHTS for Inhibitors of PLK1-PDB (polo-like kinase 1 - polo-box domain): Primary Screen). Conditions: Plk1 PBD binding of FITC phosphopeptide, fluorescence polarization.
% is scaled to controls: 0 for no effect and ±100 for the full control effect; potency is read from the fitted curve at half-maximal effect.
Also: nearly all actives have a fitted effect of over 65% in size.
For max response, negative = inhibition in this document: series mostly up to about 57 µM.

Amino acid sequences for entries named in this document (tags omitted).
UniProt P53350, whole entry, looked up: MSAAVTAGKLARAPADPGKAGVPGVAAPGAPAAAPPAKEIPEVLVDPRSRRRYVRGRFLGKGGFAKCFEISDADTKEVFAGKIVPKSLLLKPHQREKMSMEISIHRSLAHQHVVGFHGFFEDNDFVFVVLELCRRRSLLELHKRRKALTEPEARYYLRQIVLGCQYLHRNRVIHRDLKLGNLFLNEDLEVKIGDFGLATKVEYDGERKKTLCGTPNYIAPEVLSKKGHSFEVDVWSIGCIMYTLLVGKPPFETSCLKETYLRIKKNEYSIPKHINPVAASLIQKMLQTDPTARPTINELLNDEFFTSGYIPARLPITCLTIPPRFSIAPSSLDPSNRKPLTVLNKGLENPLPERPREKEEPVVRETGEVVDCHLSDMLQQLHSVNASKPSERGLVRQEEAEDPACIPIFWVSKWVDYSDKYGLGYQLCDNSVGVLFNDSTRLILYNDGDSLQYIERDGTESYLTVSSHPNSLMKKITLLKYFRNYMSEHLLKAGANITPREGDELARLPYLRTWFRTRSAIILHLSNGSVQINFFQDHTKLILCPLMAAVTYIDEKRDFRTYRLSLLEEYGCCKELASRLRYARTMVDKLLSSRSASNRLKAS

Row | SMILES | Potency | max response, negative = inhibition
1 | CCC1=NN2C(=N)/C(=C\c3cccn3-c3ccc(C)c(C)c3)C(=O)N=C2S1 | inconclusive: 37.7 µM [inhibitor, single point] | 
2 | O=C1c2ccccc2NC2(CCCCC2)N1N=C1CCCCC1 |  | inactive: -0.123%
3 | CC(CN1CCN(C)CC1)OC(=O)c1ccccc1Cl (stereo unspecified) | inconclusive: 37.7 µM [inhibitor, single point] | 
4 | Cc1nc2c(C#N)c(-c3ccc(Cl)cc3)ccn2n1 |  | inactive: -2.77%
5 | Cn1c(CNC(=O)c2ccc(Cl)cc2)nnc1SCC(=O)NC1CCCC1 |  | inactive: -6.47%
6 | CC(C)n1c(SCc2ccc(Cl)cc2)nc2c1c(=O)[nH]c(=O)n2C | inconclusive: 29.9 µM [inhibitor, partial curve] | 
7 | Cc1noc(NS(=O)(=O)c2ccc(NC(=O)c3ccc(Cl)c(S(=O)(=O)N(C)c4ccccc4)c3)cc2)c1C | inconclusive: 29.9 µM [inhibitor, partial curve] | 
8 | CCC(NC(=O)CCc1c(C)c2cc3c(-c4ccccc4)coc3cc2oc1=O)C(=O)O (stereo unspecified) | inconclusive: 21.2 µM [inhibitor, partial curve] | 
9 | CCc1nc(SCC(=O)Nc2cc(C)on2)c2c(C)c(C)sc2n1 |  | inactive: -5.95%
10 | Cc1sc(NC(=O)CN(Cc2ccccc2)C(=O)C(C)C)c(C(N)=O)c1C |  | inactive: -2.41%
11 | Cc1n[nH]c(C)c1N1C(=O)c2cccc3c(N4CCCCCC4)ccc(c23)C1=O | inconclusive: 26.7 µM [inhibitor, partial curve] | 
12 | CC(=O)N1N=C(c2cccc([N+](=O)[O-])c2)OC1c1ccc(Cl)cc1Cl (stereo unspecified) |  | inactive: -2.66%
13 | Cc1ccc(NNC(=O)c2cc(C(C)(C)C)nn2Cc2ccccc2)cc1 |  | inactive: -9.74%
14 | O=C(CSc1ccc(Cl)cc1)c1ccco1 | active: 9.47 µM | 
15 | COc1ccc(/C=C2\SC(=S)N(C(C(=O)O)c3ccccc3)C2=O)c(OC)c1 (stereo unspecified) | inconclusive: 23.8 µM [inhibitor, single point] | 
16 | N#Cc1ccc2c(=O)n(-c3ccccc3)sc2c1 | active: 2.99 µM | 
17 | CCOC(=O)c1c(C)nc(C)c(C(=O)OCC)c1-c1ccccc1 |  | inactive: -5.53%
18 | CCOC(=O)c1ccc(NC(=O)c2nc(S(=O)(=O)Cc3ccccc3)ncc2Cl)cc1 | active: 11.9 µM | 
19 | Cc1cc(C)n2nc3nc(N4CCCCC4)nc(-c4ccco4)c3c2n1 | inconclusive: 23.8 µM [inhibitor, partial curve] | 
20 | CCOc1ccccc1-n1c(N)c(C(N)=O)sc1=S | inconclusive: 16.8 µM [inhibitor, partial curve] | 
21 | Cn1c(=O)oc2cc(S(=O)(=O)NCc3cccnc3)ccc21 |  | inactive: -6.36%
22 | O=C1NN(c2ccc(Cl)c(Cl)c2)C(=O)/C1=C/c1ccc(-c2ccccc2C(=O)O)o1 | active: 18.9 µM | 
23 | CCC(C)C(NC(=O)c1ccccc1NC(=O)c1ccccc1)C(=O)O (stereo unspecified) | active: 26.7 µM | 

Row | SMILES | Potency | max response, negative = inhibition
24 | COc1ccccc1NC(=O)c1sc2nc(Cc3ccccc3)cc(C(F)(F)F)c2c1N | inconclusive: 18.9 µM [inhibitor, partial curve] | 
25 | Cc1ccc(C(=O)O)cc1-c1ccc(/C=C2\SC(=O)N(CC(=O)Nc3ccccc3)C2=O)o1 | inconclusive: 23.8 µM [inhibitor, partial curve] | 
26 | CC1(c2nnc(Cc3ccccc3)o2)CC(c2ccccc2[N+](=O)[O-])=NO1 (stereo unspecified) | inconclusive: 10.6 µM [inhibitor, single point] | 
27 | CCN(CC)c1ccc(/C=N/Nc2ccc(C)cc2)c(O)c1 | inconclusive: 26.7 µM [inhibitor, partial curve] | 
28 | CN(CC(=O)Nc1ccccc1C(F)(F)F)C(=O)CSc1nc(N)cc(N)n1 | inconclusive: 26.7 µM [inhibitor, single point] | 
29 | Cc1cc(N2C(=O)C(=O)/C(=C(/O)c3ccccc3)C2c2cccs2)no1 (stereo unspecified) | inconclusive: 29.9 µM [inhibitor, single point] | 
30 | CC1=C(C(=O)Nc2ccccc2F)C(c2cccs2)C2=C(CCCC2=O)N1 (stereo unspecified) | active: 23.8 µM | 
31 | O=C(CNS(=O)(=O)c1ccc(Cl)c(C(F)(F)F)c1)NC1CCCCC1 | inconclusive: 37.7 µM [inhibitor, partial curve] | 
32 | CC(C)C(=O)N(Cc1ccc(F)cc1)Cc1nc2ccccc2c(=O)[nH]1 | inconclusive: 21.2 µM [inhibitor, partial curve] | 
33 | O=C(O)COc1ccccc1/C=N/NC(=O)CSc1nc2ccccc2n1Cc1ccccc1Cl | active: 59.7 µM | 
34 | Cc1cccc(N2CCN(C(=S)c3ccc([N+](=O)[O-])cc3)CC2)c1 | active: 4.74 µM | 
35 | CCOC(=O)c1ccc2c(c1)n(CC)c(/C=C/N(C)c1ccccc1)[n+]2CC | inconclusive: 37.7 µM [inhibitor, single point] | 
36 | COc1cc(C(=S)N2CCOCC2)cc(OC)c1OC(=O)Cc1ccc(F)cc1 | active: 7.52 µM | 
37 | COC(=O)[C@]12CCCCC=C1N(Cc1ccco1)C(=O)[C@H](CC(=O)NCC13CC4CC(CC(C4)C1)C3)C2 |  | inactive: -5.59%
38 | CCCCn1cnc2c1c(=O)[nH]c(=O)n2CCCC | active: 11.9 µM | 
39 | O=C1NC(=S)S/C1=C\c1cc2ccccc2nc1N1CCCCC1 | active: 10.6 µM | 
40 | COc1ccc(NC(=O)CNS(=O)(=O)c2ccc(Cl)cc2)cc1 |  | inconclusive: -30.7% [inhibitor]
41 | CCOC(=O)c1c(NC(=O)Nc2ccccc2)sc(C)c1C | inconclusive: 16.8 µM [inhibitor, partial curve] | 
42 | CCCN(CC(=O)Nc1ccccc1C)C(=O)/C=C/c1ccc(S(=O)(=O)N2CCCCCC2)cc1 |  | inactive: 7.98%
43 | O=C(O)c1cnc2ccccc2n1 | active: 26.7 µM | 
44 | COc1ccc(C)cc1NC(=O)C(OC(=O)c1cnccn1)c1ccccc1 (stereo unspecified) |  | inactive: 1.06%
45 | CCN(CC)c1ccc(NC(=S)NC(=O)Cc2ccccc2)cc1 |  | inconclusive: -32.1% [inhibitor]
46 | COC(=O)c1ccc(NC(=O)CSc2nnc(-c3cccnc3)o2)cc1 | inconclusive: 23.8 µM [inhibitor, partial curve] | 

Shown with tabs: part of the list above.
Row	SMILES	Potency	max response, negative = inhibition
29	Cc1cc(N2C(=O)C(=O)/C(=C(/O)c3ccccc3)C2c2cccs2)no1 (stereo unspecified)	inconclusive: 29.9 µM [inhibitor, single point]	
30	CC1=C(C(=O)Nc2ccccc2F)C(c2cccs2)C2=C(CCCC2=O)N1 (stereo unspecified)	active: 23.8 µM	
32	CC(C)C(=O)N(Cc1ccc(F)cc1)Cc1nc2ccccc2c(=O)[nH]1	inconclusive: 21.2 µM [inhibitor, partial curve]	
